The supplement of paper PMC3334620
Whole data set: some 33,000 sequences, median “E-score (-0.5 to 0.5)” near -0.0059, cut for the highest 2% near 0.26. This is one part of the list.

target: T1, Cin5 (UniProt P40917); assay: PBM E-score (8-mer binding enrichment) (E-score (-0.5 to 0.5)); higher = stronger / more preferred TF binding; conditions: protein concentration: 100 nM; construct: GST-full length
T1 sequence: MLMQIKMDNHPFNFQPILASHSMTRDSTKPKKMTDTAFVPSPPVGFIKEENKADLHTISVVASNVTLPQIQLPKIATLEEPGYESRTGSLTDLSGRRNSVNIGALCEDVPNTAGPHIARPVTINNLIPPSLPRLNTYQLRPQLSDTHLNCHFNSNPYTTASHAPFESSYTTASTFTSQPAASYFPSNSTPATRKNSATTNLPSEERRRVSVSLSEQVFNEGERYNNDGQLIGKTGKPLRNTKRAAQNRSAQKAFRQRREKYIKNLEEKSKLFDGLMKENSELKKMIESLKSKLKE
Method: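 Universal 'all 10-mer' protein binding microarrays (Agilent AMADID 015681) probed with GST-tagged S. cerevisiae TFs (full-length or DBD) made by in vitro transcription/translation (PURExpress), about 100-200 nM. Bound TF was detected with fluorescent anti-GST. Each ungapped 8-mer (which stands for itself and its reverse complement) is scored by the PBM enrichment score (E-score), a modified Wilcoxon-Mann-Whitney statistic from -0.5 to +0.5, computed with the Universal PBM Analysis Suite. Scale: above 0.35 generally sequence-specific binding.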

Row | Sequence | PBM E-score
1 | TTGCGCAA | 0.119
2 | TAGGCGGA | 0.125
3 | AGCAGTGC | -0.177
4 | CGGTGGGC | -0.176
5 | CAACCTTG | -0.0155
6 | AATTTACT | 0.207
7 | ACATCGAC | -0.0518
8 | TAGGGTCA | 0.00684
9 | AACTTCGA | 0.0793
10 | CTCAGATA | 0.166
11 | AGAACGTG | 0.0822
12 | AATAACAT | 0.204
13 | CAGGCGCA | -0.135
14 | CTTATTGC | 0.0948
15 | AAGTATGT | 0.0996
16 | GATTAGCC | 0.0514
17 | CAATGCCG | 0.0476
18 | TATTCTCA | 0.0889
19 | AAATACGG | 0.0126
20 | CTTCGACC | -0.112
21 | AATTTGCC | 0.022
22 | ATACCAAT | 0.114
23 | ATAAGAAC | 0.31
24 | CACATGAA | -0.0322
25 | TCTTCGAA | 0.0305

Quoted from the listing:
PBM E-score with AGAACGTG is entered as 0.0822
PBM E-score with AATAACAT is entered as 0.204

(further entries)

Row | Sequence | PBM E-score
26 | CTAAGAAC | 0.179
27 | ATCAGCGG | 0.141
28 | AACTTATA | 0.18
29 | ACGAGTAG | 0.0382
30 | CAGCACGG | -0.114
31 | CCCTAGTC | -0.201
32 | AGGCTCTC | -0.33
33 | CCACCGTA | -0.049
34 | CTGACGCA | -0.102
35 | GAAGGCTC | -0.269
36 | CCGTGACC | -0.187
37 | CTGTGCAA | -0.0319
38 | AACGGTGT | 0.0106
39 | GCAGTGAA | 0.191
40 | CAGTACTC | -0.147
41 | CACACATA | -0.0176
42 | CCTGAGCG | -0.106
43 | TACGTCAA | 0.158
44 | AACCCAGA | -0.0895
45 | ATTCCTTA | -0.00725
46 | ACCATTAA | 0.203
47 | AACTAATG | 0.219
48 | CATTCATA | 0.256
49 | ACCCTAAG | -0.0261
50 | ATGTGTTA | 0.132

Row | Sequence | PBM E-score
51 | CTCCCCAG | -0.0489
52 | TAGGTGAA | 0.136
53 | TCTCTTCA | -0.00771
54 | AAAGCCTA | -0.102
55 | AGTCTCGC | -0.00731
56 | CTAGGGCA | -0.279
57 | AACGGCAA | 0.0737
58 | CGCGTAAA | 0.165
59 | GCGACCAA | 0.194
60 | GAATCCTA | 0.0175
61 | ATGCATCC | 0.0022
62 | ATGCATAA | 0.193
63 | CCTGCACA | -0.17
64 | CCCGGTAC | -0.134
65 | CTTGGTGC | -0.0925
66 | ACCTTGGC | -0.185
67 | CAAACATG | 0.0123
68 | CTTGGTTC | 0.117
69 | AGTTCGTA | 0.0677
70 | TGCGTCCA | -0.219
71 | ACGTCGTC | -0.0503
72 | CACAATAC | 0.0698
73 | AGCCAAAA | 0.0959
74 | CTTCCGCA | -0.142
75 | CGAGTGGC | -0.182

Row | Sequence | PBM E-score
76 | ACATATCA | 0.242
77 | CTGGAAAG | -0.0736
78 | CTATGGAA | -0.0826
79 | GTAGGAAC | -0.04
80 | GAATACCA | 0.207
81 | AAAGGGGC | -0.202
82 | AAGCCGGG | -0.0945
83 | TCCCTACA | -0.0396
84 | CGTTGTGA | -0.0317
85 | CCTCTCAC | -0.147
86 | GACTATGA | 0.0503
87 | CGGCATAA | 0.105
88 | CACAGAAA | 0.0359
89 | CCCAAGTC | -0.172
90 | CTGCCTCC | -0.0965
91 | CTCAGGGC | -0.0919
92 | GAAACGCA | 0.0412
93 | TTAACCAA | 0.148
94 | GATGAACA | 0.0889
95 | CTTGTTTC | 0.0494
96 | ATCTTCAT | 0.0738
97 | ACCCTCTA | -0.131
98 | CATCTTTA | -0.0322
99 | AAAATTAT | 0.251
100 | ACATGGAT | 0.092

An excerpt of these results, field by field.
AAAGGGGC
  PBM E-score = -0.202
AAGCCGGG
  PBM E-score = -0.0945
TCCCTACA
  PBM E-score = -0.0396
CGTTGTGA
  PBM E-score = -0.0317

Additional entries follow.

Row | Sequence | PBM E-score
101 | AACTGCGT | -0.121
102 | ATAGTCCC | -0.103
103 | ATCCGGAA | 0.227
104 | AACGACAC | 0.17
105 | CTAGCCCC | -0.109
106 | ATCAGAGC | 0.0896
107 | ATACGTTA | 0.0594
108 | AACGATAG | 0.0137
109 | GCACTAGA | -0.0877
110 | CCTCGTGC | -0.194
111 | CCTCGGAA | 0.0479
112 | GCTTAGCA | 0.0739
113 | ACTCATAG | 0.0385
114 | CAAGCGAC | -0.0289
115 | CTCAATAA | -0.15
116 | AGTCCAAT | 0.0719
117 | TCAACACA | 0.189
118 | TACCGTAA | 0.177
119 | GCGCGGCA | -0.0451
120 | GCTATCGA | -0.0296
121 | AGGGCACG | -0.206
122 | AAAGGGTC | -0.142
123 | GTAGTCCA | -0.224
124 | CTCCTCAC | -0.258
125 | ACCCACAC | 0.0935

Row | Sequence | PBM E-score
126 | ATCCCAAG | -0.0105
127 | GGGCGCTA | -0.164
128 | ATCTTATC | 0.158
129 | CGTCCAAG | -0.148
130 | TGTCTAAA | -0.0239
131 | AAGTACAG | 0.0416
132 | CCTGGGTC | -0.256
133 | AGTTGATG | 0.0486
134 | ATCTGAAG | -0.229
135 | AATCGTTC | 0.0881
136 | AAATTGCT | 0.14
137 | CGCAGCAA | -0.101
138 | GACGCAGA | -0.0192
139 | GAGTTAAA | 0.0178
140 | GGAAGGAC | -0.163
141 | CATAGATG | -0.0944
142 | GGAGAGCA | -0.232
143 | GAGGGCGC | -0.164
144 | CGAGCGGA | 0.00773
145 | CAGTAATA | 0.254
146 | CAATGCAC | -0.0596
147 | GGGACTAC | 0.0211
148 | CTTTTCAC | 0.0318
149 | CTGATTAA | 0.108
150 | CTTGGTAC | 0.115

Rewritten tab-delimited: part of the list above
Row	Sequence	PBM E-score
101	AACTGCGT	-0.121
102	ATAGTCCC	-0.103

The listing continues:

Row | Sequence | PBM E-score
151 | AATATGCC | -0.075
152 | AGAGGCTC | -0.266
153 | CATTAATG | 0.196
154 | CCACAGTA | 0.0368
155 | ACGGGCAG | 0.00666
156 | ATTTGTTA | 0.179
157 | GAGATTAA | 0.14
158 | AGACTATG | -0.0386
159 | ATAACCGG | -0.145
160 | ATGAGTTC | -0.0157
161 | GTATTATA | 0.267
162 | AATATAGT | 0.315
163 | ATATGAAA | 0.259
164 | ATAATTGG | 0.126
165 | TATCAGAA | 0.0533
166 | TCCGACCA | -0.0775
167 | CTGCAGTC | -0.165
168 | AGAGTAGC | -0.186
169 | AAATTACC | 0.123
170 | GAGAAAAC | 0.0234
171 | AAAAAAAT | 0.236
172 | TGGTAACA | -0.0163
